Assay results published in article PMC9048828.
Changes are numbered by the printed parent chain. These are yes or no findings as the source states them, for the method shown. For some assays here: In cells and extracts the contact can be indirect. Some binding calls cover weakened binding; strength is not graded here. For some assays here: Where a sequence is shown, tags or fusion partners need not be part of it. Blank lines part the entries; values can stand above or below the binder they belong to.

Experiments:
RibE (Bacillus subtilis) = target: T1, RibE (Bacillus subtilis) (UniProt P16440); assay: two-hybrid; bacterial adenylate cyclase two-hybrid (BACTH) in E. coli BTH101; T18 and T25 fragments fused to the N- or C-terminus, all combinations; lacZ read qualitatively by X-Gal overlay on colonies
T1 sequence: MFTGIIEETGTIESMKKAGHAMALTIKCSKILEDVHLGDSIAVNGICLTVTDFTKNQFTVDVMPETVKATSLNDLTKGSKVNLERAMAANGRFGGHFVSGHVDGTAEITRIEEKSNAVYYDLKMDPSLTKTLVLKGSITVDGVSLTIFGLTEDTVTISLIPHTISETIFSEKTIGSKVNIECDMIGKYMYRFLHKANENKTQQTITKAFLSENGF

RibH (Bacillus subtilis) = target: T2, RibH (Bacillus subtilis) (UniProt P11998); assay: as above
T2 sequence: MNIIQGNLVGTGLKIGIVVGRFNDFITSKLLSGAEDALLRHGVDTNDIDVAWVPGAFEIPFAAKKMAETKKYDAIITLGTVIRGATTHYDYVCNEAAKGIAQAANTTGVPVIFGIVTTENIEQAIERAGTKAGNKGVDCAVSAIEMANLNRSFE

RibT (Bacillus subtilis) = RibT (Bacillus subtilis) (UniProt P17622); assay: as above
[1] = target: T3, Strep-RibH (Bacillus subtilis) (UniProt P11998); assay: pull-down + SEC; coproduced in E. coli BL21 Star, purified by Strep-Tactin affinity chromatography followed by SEC; pooled 60-mer peak (~1 MDa) analysed by SDS-PAGE
T3 sequence: T2 sequence

[2] = target: T4, Strep-RibH^K29E (Bacillus subtilis) (UniProt P11998); assay: as above
T4 sequence: T2 sequence with K29E

[3] = target: T5, Strep-RibH^K29R (Bacillus subtilis) (UniProt P11998); assay: as above
T5 sequence: T2 sequence with K29R

binding (RibE (Bacillus subtilis)): binds | binding (RibH (Bacillus subtilis)): binds | binding (RibT (Bacillus subtilis)): binds
B1: RibT (enzyme, UniProt P17622 1-124)
chain: MLIRYKKSFEKIAMGLLSFMPNEKDLKQLQQTIKDYETDTDRQLFLWKEDEDIVGAIGVEKKDSEVEIRHISVNPSHRHQGIGKQMMDALKHLFKTQVLVPNELTQSFFERCQGQQDQDISYNN

binding [1]: binds | binding [2]: binds | binding [3]: binds
B2: His6-RibE (enzyme, UniProt P16440 1-215)
chain: T1 sequence

binding (RibE (Bacillus subtilis)): binds | binding (RibH (Bacillus subtilis)): binds
B3: RibH (enzyme, UniProt P11998 1-154)
chain: T2 sequence
